# From PMC12040169 (PLOS Biology, 2025)
# Some of the results follow.
# Test system: T1, CTL2-GFP (C. trachomatis L2/434/Bu, GFP-expressing)
# T1 construct: L2/434/Bu, GFP-expressing
# Set-up: species or system HeLa; Intracellular C. trachomatis growth in HeLa cells, bulk GFP fluorescence relative to DMSO
# Conditions: bulk GFP, single well; 28.5 h, 10 µM; inhibitor
row,SMILES,% of control remaining [%]
1,COCCN(C(=O)CCC(=O)NCCc1ccccc1)C1CCN(C)CC1 [CBK014576],112.217
2,O=C(NC(c1ccccc1)c1ccco1)C1CCN(C(=S)NCCc2ccccc2)CC1 (centres unmarked) [CBK060412],162.179
3,CCc1nn(CCC(C)O)c(=O)c2cc3sc(C)cc3n12 (centres unmarked) [CBK282869],123.953
4,Cc1cccc(NC(=O)CN2C(=O)S/C(=C\c3cc(C)n(-c4cc(C)ccn4)c3C)C2=O)c1 [CBK264671],126.954
5,FC(F)(F)c1nc2ccccc2nc1SCc1ccco1 [CBK107201],126.435
6,Cc1nn(C(C)CC(=O)NCc2ccco2)c(C)c1Br (centres unmarked) [CBK269797],122.91
7,CS(=O)(=O)c1cccc(S(=O)(=O)N2CCN(Cc3ccccc3)CC2)c1 [CBK269747],146.118
8,Cc1cccc(C)c1NC(=O)c1c(NC(=O)c2ccco2)sc2c1CCC(C)C2 (centres unmarked) [CBK265550],124.636
9,Cc1ccc(/C=N/N=C2/N=C(O)C(CC(=O)Nc3ccccc3C(F)(F)F)S2)o1 (centres unmarked) [CBK263731],120.462
10,O=C(NC(C(=O)O)C12CC3CC(CC(C3)C1)C2)c1ccc([N+](=O)[O-])cc1 (centres unmarked) [CBK261405],100
11,O=C(Nc1cccc(-c2nc3ncccc3o2)c1)c1cccc(OCc2ccccc2)c1 [CBK263126],116.185
12,COCCCNC(=O)C1CCCN(c2nc3c(-c4ccc(C)cc4)csc3c(=O)[nH]2)C1 (centres unmarked) [CBK215548],134.99
13,CCC(Oc1ccc(C)cc1)C(=O)Nc1ccc(S(N)(=O)=O)cc1 (centres unmarked) [CBK270036],130.045
14,CCn1c(CN2CCCC2c2nc(N(C)C)ncc2-c2ccc(F)cc2)nc2ccccc21 (centres unmarked) [CBK285974],94.278
15,NC(CC(=O)O)c1ccc(F)c(Oc2ccccc2)c1 (centres unmarked) [CBK286912],118.581
16,Cc1onc(-c2ccccc2)c1CNC(=O)c1cccc(C(F)(F)F)c1 [CBK144079],122.458
17,CCc1nn(CC(=O)N2CCCCCC2)c(=O)c2cc3occc3n12 [CBK283677],146.237
18,CCOC(=O)c1cccc(NS(=O)(=O)c2cccc3cccnc23)c1 [CBK034345],86.5065
19,O=c1nc2n(Cc3ccccc3)c3ccccc3cc-2c(=O)[nH]1 [CBK287958],157.245
20,Cc1c(C(=O)O)sc2ncn(CCCOc3ccc(Cl)cc3)c(=O)c12 [CBK286695],115.736
21,COc1ccc(C(NC(=O)[C@H]2CCCN2C(=O)Cc2cccs2)c2ccccc2C)cn1 (some centres unmarked) [CBK075053],169.275
22,O=C(O)C1Nc2c(C(=O)N3CCOCC3)cccc2C2C=CCC12 (centres unmarked) [CBK275006],92.305
23,CCCC(=O)Nc1ccc(C(=O)N2CCN(CC)CC2)cc1 [CBK304218],170.982
24,O=C(CSc1ncn(-c2ccccc2)n1)Nc1c(Cl)cccc1Cl [CBK269683],138.926
25,CC(C)(C)c1cc(CCC(=O)N/N=C/c2ccco2)cc(C(C)(C)C)c1O [CBK261960],110.648
26,CS(=O)(=O)N[C@H]1CO[C@H]2[C@@H]1OC[C@@H]2Nc1nccc(-c2cccs2)n1 [CBK289519],120.843

# Another view of some results above.
row	SMILES	% of control remaining [%]
2	O=C(NC(c1ccccc1)c1ccco1)C1CCN(C(=S)NCCc2ccccc2)CC1 (centres unmarked) [CBK060412]	162.179
3	CCc1nn(CCC(C)O)c(=O)c2cc3sc(C)cc3n12 (centres unmarked) [CBK282869]	123.953
4	Cc1cccc(NC(=O)CN2C(=O)S/C(=C\c3cc(C)n(-c4cc(C)ccn4)c3C)C2=O)c1 [CBK264671]	126.954
5	FC(F)(F)c1nc2ccccc2nc1SCc1ccco1 [CBK107201]	126.435
6	Cc1nn(C(C)CC(=O)NCc2ccco2)c(C)c1Br (centres unmarked) [CBK269797]	122.91
7	CS(=O)(=O)c1cccc(S(=O)(=O)N2CCN(Cc3ccccc3)CC2)c1 [CBK269747]	146.118
8	Cc1cccc(C)c1NC(=O)c1c(NC(=O)c2ccco2)sc2c1CCC(C)C2 (centres unmarked) [CBK265550]	124.636
9	Cc1ccc(/C=N/N=C2/N=C(O)C(CC(=O)Nc3ccccc3C(F)(F)F)S2)o1 (centres unmarked) [CBK263731]	120.462
10	O=C(NC(C(=O)O)C12CC3CC(CC(C3)C1)C2)c1ccc([N+](=O)[O-])cc1 (centres unmarked) [CBK261405]	100
11	O=C(Nc1cccc(-c2nc3ncccc3o2)c1)c1cccc(OCc2ccccc2)c1 [CBK263126]	116.185
12	COCCCNC(=O)C1CCCN(c2nc3c(-c4ccc(C)cc4)csc3c(=O)[nH]2)C1 (centres unmarked) [CBK215548]	134.99
13	CCC(Oc1ccc(C)cc1)C(=O)Nc1ccc(S(N)(=O)=O)cc1 (centres unmarked) [CBK270036]	130.045
14	CCn1c(CN2CCCC2c2nc(N(C)C)ncc2-c2ccc(F)cc2)nc2ccccc21 (centres unmarked) [CBK285974]	94.278
15	NC(CC(=O)O)c1ccc(F)c(Oc2ccccc2)c1 (centres unmarked) [CBK286912]	118.581
16	Cc1onc(-c2ccccc2)c1CNC(=O)c1cccc(C(F)(F)F)c1 [CBK144079]	122.458
17	CCc1nn(CC(=O)N2CCCCCC2)c(=O)c2cc3occc3n12 [CBK283677]	146.237
18	CCOC(=O)c1cccc(NS(=O)(=O)c2cccc3cccnc23)c1 [CBK034345]	86.5065
19	O=c1nc2n(Cc3ccccc3)c3ccccc3cc-2c(=O)[nH]1 [CBK287958]	157.245
20	Cc1c(C(=O)O)sc2ncn(CCCOc3ccc(Cl)cc3)c(=O)c12 [CBK286695]	115.736
21	COc1ccc(C(NC(=O)[C@H]2CCCN2C(=O)Cc2cccs2)c2ccccc2C)cn1 (some centres unmarked) [CBK075053]	169.275
22	O=C(O)C1Nc2c(C(=O)N3CCOCC3)cccc2C2C=CCC12 (centres unmarked) [CBK275006]	92.305
23	CCCC(=O)Nc1ccc(C(=O)N2CCN(CC)CC2)cc1 [CBK304218]	170.982
24	O=C(CSc1ncn(-c2ccccc2)n1)Nc1c(Cl)cccc1Cl [CBK269683]	138.926
25	CC(C)(C)c1cc(CCC(=O)N/N=C/c2ccco2)cc(C(C)(C)C)c1O [CBK261960]	110.648

# Remaining list, next part

row,SMILES,% of control remaining [%]
1,Cn1c(Cc2ccccc2)nnc1SCC(=O)Nc1ccc(N2CCOCC2)cc1 [CBK269750],124.014
2,Cc1nc(SCCO)c2c(=O)n(C)c(=O)n(CC(C)C)c2n1 [CBK306114],81.3023
3,COc1ccc(C(C)c2cc3c(cc2O)OCO3)c(F)c1 (centres unmarked) [CBK200101],85.4571
4,COc1ccc(-n2c(=O)[nH]c3ncc(-c4ccco4)nc32)c(C)c1 [CBK065019],73.4036
5,Cc1nc(S(=O)(=O)Cc2c(F)cccc2Cl)n(CC2CCCO2)c1C (centres unmarked) [CBK304706],132.821
6,CN(c1ncccc1C#N)C1CCN(C(=O)OCc2ccccc2)CC1 [CBK023869C],151.969
7,Cc1ccc(-c2nnc3sc(-c4cnccn4)nn23)cc1 [CBK268258],123.111
8,CCc1nnc(NS(=O)(=O)c2ccc(NC(=O)COc3ccc(Cl)cc3Cl)cc2)s1 [CBK200050],27.9435
9,O=C(NCC1CCCCC1)C1(Cc2ccc(-c3cccnc3)cc2)CCOCC1 [CBK285591],99.2035
10,O=C(O)C(O)C(O)c1nc2ccccc2[nH]1 (centres unmarked) [CBK260955],95.2219
11,COc1ccccc1CNCCc1ccc(S(N)(=O)=O)cc1 [CBK269852C],119.34
12,CN(C)C(=O)c1ccc(-c2ccc(COC3CCN(C(=O)c4cc5ccccc5o4)CC3)c(S(C)(=O)=O)c2)cc1 [CBK155965],88.9125
13,O=C(CC1C(=O)NCCN1C(=S)Nc1ccccc1)Nc1ccc2c(c1)OCCO2 (centres unmarked) [CBK267999],102.497
14,CN(C)C(=O)Cn1nc(-c2cc3c(s2)CCC3)oc1=O [CBK284715],91.393
15,O=C(CCn1c(C(F)(F)F)cc2cccnc21)NC1CCCOC1 (centres unmarked) [CBK284867],82.3675
16,CSc1ccc(CN2CCN(S(=O)(=O)Cc3ccccc3)CC2)cc1 [CBK264301G],110.48
17,CC(=O)Nc1ccc(SC(C)c2nsc(NS(=O)(=O)c3ccc(-c4ccccc4)cc3)n2)cc1 (centres unmarked) [CBK047508],140.956
18,O=C(Nc1cccc(Cl)c1)N[C@H]1C[C@H]2C(=O)NC[C@@H](CCC(=O)N3CCCC3)N2C1 [CBK289003],145.337
19,CC(C)(C)c1cc2cc(NC(=O)C3CC3)ccc2[nH]1 [CBK019994],97.6928
20,Cc1cc(NC(=O)c2ccc3c(c2)OCCO3)c2ccccc2n1 [CBK122739],86.3992
21,CNc1nc2c(ncn2C2CC(O)C(CO)O2)c(=O)[nH]1 (centres unmarked) [CBK201312],163.891
22,CC(Oc1ccccc1Br)c1nc(-c2nonc2N)no1 (centres unmarked) [CBK026982],96.3861
23,CC1(C)CCCN(Cc2nnnn2-c2ccc(S(C)(=O)=O)cc2)CC1 [CBK306177],141.551
24,O=c1[nH]c2ncc(-c3ccoc3)nc2n1Cc1ccco1 [CBK064639],182.96
25,Cc1nc(C2CCCN(C(=O)c3ccnn3C)C2)c2sccn12 (centres unmarked) [CBK285235],132.445
26,N#Cc1sc(NC(=O)c2cccc(Br)c2)nc1Cl [CBK017468],31.8167

row,SMILES,% of control remaining [%]
1,COc1ccc(Cn2nc3nnc(-c4ccccc4)c(-c4ccccc4)n3c2=O)cc1 [CBK286180],104.979
2,CC(=O)Nc1ccc(Nc2ccc([N+](=O)[O-])cc2[N+](=O)[O-])cc1 [CBK260886],114.708
3,Cc1nc2nc(-c3ccc(Cl)s3)cn2nc1C [CBK284565],84.836
4,COCCC(=O)NC(Cc1ccsc1)c1nc(C)c(C)s1 (centres unmarked) [CBK284774],184.32
5,CN(C)CCN(C)c1nc(-c2ccc(C(=O)O)cc2)cn2ccnc12 [CBK037880],164.533
6,O=C(CCn1cncn1)N[C@H]1C2CCCCC2[C@@H]1c1ccccc1 (some centres unmarked) [CBK282970],129.221
7,Cc1cc(C2CCCN(C(=O)CC3OCCc4sccc43)C2)n[nH]1 (centres unmarked) [CBK305241],109.055
8,CC(C)CC1C(=O)NCCN1Cc1ccccc1 (centres unmarked) [CBK005336],98.352
9,COCc1nnc(S)n1-c1cccc(OC)c1 [CBK288424],134.459
10,CCC1c2cccn2CCN1C(=O)c1cc(-c2ccccn2)n[nH]1 (centres unmarked) [CBK283224],116.945
11,COc1ccc(NC(=O)c2ccc(N(C)Cc3ccccc3)c([N+](=O)[O-])c2)cc1 [CBK268094],100.341
12,CCc1nc2ccc(C(=O)Nc3cccc(NS(C)(=O)=O)c3)cn2c1N(C)CCCc1ccccc1 [CBK146670],96.1659
13,Brc1ccc(C2(c3nnc(C4CCCO4)o3)CCOCC2)cc1 (centres unmarked) [CBK306258],112.535
14,CCN(CC)S(=O)(=O)c1ccc(Nc2nc3ccc(Cl)cc3n3cnnc23)cc1 [CBK268259],132.994
15,CC1(C)CC(=O)C2=C(C1)c1c(ccc3ccccc13)NC2c1ccc(N2CCC(Cc3ccccc3)CC2)c([N+](=O)[O-])c1 (centres unmarked) [CBK262944],128.891
16,O=C(C1CC1)N1CCC2(CC1)Nc1cccnc1-n1cccc12 [CBK284504],67.7492
17,CCOCc1nc2c(c(NCCn3cccn3)n1)CCN(C(C)=O)CC2 [CBK307707],130.305
18,CC1CN(Cc2c(C(C)C)[nH]c3ncccc23)CC(C)O1 (centres unmarked) [CBK282900],105.216
19,O=C(c1ccc(F)cc1)[C@H]1CCCN(C(=O)c2ccco2)C1 [CBK284328],100.225
20,Cc1c(C)n(C)c2ccc(C(=O)NCCC(=O)N3CCOCC3)cc12 [CBK281669],112.563
21,NS(=O)(=O)c1ccc(CCNS(=O)(=O)c2ccccc2[N+](=O)[O-])cc1 [CBK264369],115.706
22,CC(C)Nc1cncc(Sc2cccc(N)c2)n1 [CBK091434],113.545
23,COc1ccc(CCN2CCCCC2Cn2cncn2)cc1 (centres unmarked) [CBK305095],126.862
24,COc1ccn2c(CCCN(C)C3Cc4ccccc4C3)nc(-c3ccc4c(c3)OCO4)c2c1 [CBK036303],186.491
25,Cc1cccnc1NC(=O)C(C)n1cc([N+](=O)[O-])cn1 (centres unmarked) [CBK268918],103.12
